Data reported in PMC4545792.
Substitutions are numbered along the chain they refer to. These are yes or no findings as the source states them, for the method shown. In cells and extracts the contact can be indirect. Here binding means that the protein was enriched with, or labelled near, the bait; the list need not be complete. Sequences can lack the tags named with a protein.

The chains behind the UniProt entries cited, without tags or fusion partners. Residues count along the entry.
UniProt Q61102, residues 23-752: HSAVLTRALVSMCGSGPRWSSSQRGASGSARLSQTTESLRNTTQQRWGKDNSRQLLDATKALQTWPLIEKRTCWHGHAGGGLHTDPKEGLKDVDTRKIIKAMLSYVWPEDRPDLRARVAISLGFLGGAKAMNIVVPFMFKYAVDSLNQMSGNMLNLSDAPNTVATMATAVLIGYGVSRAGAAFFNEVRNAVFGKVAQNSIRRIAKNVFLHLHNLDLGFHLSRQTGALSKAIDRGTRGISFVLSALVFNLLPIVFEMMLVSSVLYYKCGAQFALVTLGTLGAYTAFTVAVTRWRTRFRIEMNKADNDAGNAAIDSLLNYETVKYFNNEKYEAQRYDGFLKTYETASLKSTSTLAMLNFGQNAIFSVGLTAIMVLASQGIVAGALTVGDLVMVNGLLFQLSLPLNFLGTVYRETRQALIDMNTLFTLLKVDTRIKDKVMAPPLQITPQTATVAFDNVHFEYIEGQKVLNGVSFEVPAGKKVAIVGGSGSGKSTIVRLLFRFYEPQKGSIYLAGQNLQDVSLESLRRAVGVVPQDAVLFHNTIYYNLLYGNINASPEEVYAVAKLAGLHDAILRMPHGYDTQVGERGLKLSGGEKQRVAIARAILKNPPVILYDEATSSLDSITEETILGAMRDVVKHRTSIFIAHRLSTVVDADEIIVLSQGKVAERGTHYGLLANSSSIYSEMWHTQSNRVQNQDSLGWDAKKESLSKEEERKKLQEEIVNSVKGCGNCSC

Legend:
Test in all cases: affinity purification with mass spectrometry; FLAG-tagged human bait stably expressed in MEL cells induced 72 h with 1.5% DMSO; isolated mitochondria lysed in 50 mM Tris-HCl pH 7.5, 1 mM EDTA, 150 mM NaCl, 1% Nonidet P-40; anti-FLAG agarose overnight at 4°C, washes with 0.1% Nonidet P-40, elution with FLAG peptide, MudPIT MS; empty vector as control
[1] = biological target: T1, FLAG-FECH (human ferrochelatase, wild type) (human) (UniProt P22830)
T1 sequence: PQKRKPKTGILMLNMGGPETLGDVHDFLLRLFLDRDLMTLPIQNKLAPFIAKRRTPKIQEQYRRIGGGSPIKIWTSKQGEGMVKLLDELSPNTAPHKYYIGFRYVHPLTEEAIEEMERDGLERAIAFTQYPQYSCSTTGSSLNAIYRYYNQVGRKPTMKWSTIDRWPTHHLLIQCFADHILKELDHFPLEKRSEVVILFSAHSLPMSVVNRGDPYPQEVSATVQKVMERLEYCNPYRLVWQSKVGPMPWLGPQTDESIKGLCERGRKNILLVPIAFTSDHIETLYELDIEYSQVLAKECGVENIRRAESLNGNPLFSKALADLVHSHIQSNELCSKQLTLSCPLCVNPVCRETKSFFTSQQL

[2] = biological target: T2, FLAG-FECH E343K variant (human ferrochelatase) (human) (UniProt P22830)
T2 sequence: T1 sequence with E282K

[3] = biological target: T3, FLAG-FECH M76H variant (human ferrochelatase) (human) (UniProt P22830)
T3 sequence: T1 sequence with M15H

[4] = biological target: T4, FLAG-PPOX (human protoporphyrinogen oxidase, carboxy terminal FLAG) (human) (UniProt P50336)
T4 sequence: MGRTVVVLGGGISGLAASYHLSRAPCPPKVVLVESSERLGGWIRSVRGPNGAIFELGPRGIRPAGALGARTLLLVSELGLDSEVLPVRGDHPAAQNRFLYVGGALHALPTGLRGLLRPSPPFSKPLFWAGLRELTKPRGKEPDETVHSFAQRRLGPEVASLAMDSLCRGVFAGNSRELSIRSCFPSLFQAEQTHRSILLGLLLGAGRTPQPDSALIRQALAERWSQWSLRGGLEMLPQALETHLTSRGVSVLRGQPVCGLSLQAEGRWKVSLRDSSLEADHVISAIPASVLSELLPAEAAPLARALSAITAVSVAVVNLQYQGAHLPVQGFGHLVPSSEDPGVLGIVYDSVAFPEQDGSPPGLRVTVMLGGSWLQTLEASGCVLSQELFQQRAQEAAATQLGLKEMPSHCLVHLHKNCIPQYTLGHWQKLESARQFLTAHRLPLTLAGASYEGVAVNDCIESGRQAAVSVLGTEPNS

Measured: binding

mouse abcb7 (from UniProt Q61102 23-752)
binds: all assays above
